Patent publication US20190284129A1, “LIPID COMPOUNDS AND COMPOSITIONS AND THEIR OPTHALMIC USE” (BIOZEP AS, priority 2015, published 2019)
At least one compound was matched to its structure with a doubt left.

How the values were obtained:
NF-κB pathway = assay: NF-κB luciferase reporter assay in NF-κB Reporter-HEK293 cells, TNFa stimulated; type: cell-based; conditions: at high concentration; FIG. 5
Description: The NF-κB reporter (luc)-HEK293 cell line is designed for monitoring the nuclear factor Kappa B (NF-κB) signal transduction pathways. It contains a firefly luciferase gene driven by four copies of NF-κB response element located upstream of the minimal TATA promoter. After activation by pro-inflammatory cytokines or stimulants of lymphokine receptors, endogenous NF-κB transcription factors bind to the DNA response elements, inducing transcription of the luciferase reporter gene.
NF-κB Reporter-HEK293 cells were cultured in MEM medium with 10% FBS, 1% non-essential amino acids, 1 mM Na-pyruvate, 1% Penn-strep, and 100 µg/ml of Hygromycin B. […]
After treatment, cells were then lysed and a luciferase assay was performed using the ONE-Step luciferase assay system. […] Luminescence was measured using a luminometer (BioTek Synergy™ 2 microplate reader).
Reporter assays were performed in triplicate at each concentration. The luminescence intensity data were analyzed using the computer software, Graphpad Prism. In the absence of the compound, the luminescence intensity (Lt) in each data set was defined as 100%. In the absence of cells, the luminescence intensity (Lb) in each data set was defined as 0%. […] The IC50 value was determined by the concentration causing a half-maximal percent activity.

[1] = over 4-6 years, patients; cited from earlier work

Structure (SMILES) | complete inhibition of the NF-κB pathway (NF-κB pathway) | relative reduction in DR progression [1]
C[C@@H]1C[C@H]2[C@@H]3CCC4=CC(=O)C=C[C@]4(C)[C@@]3(F)[C@@H](O)C[C@]2(C)[C@@]1(O)C(=O)CO [dexamethasone, reference compound] | not the case | –
CC(C)OC(=O)C(C)(C)Oc1ccc(C(=O)c2ccc(Cl)cc2)cc1 [fenofibrate] | – | 30-40%
